Measurements as given in the supplement of paper PMC12595434, “Development of retinoid nuclear receptor pathway antagonists through targeting aldehyde dehydrogenase 1A3” (iScience, 2025).
The other results are listed elsewhere or left out. Single values of this set are uncertain.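 Tm was set to 64 °C where no melting was found, and many curves are irregular.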

Amino acid sequences for entries named in this document (tags omitted). A change or cut given only in a name is not applied to a line headed by its entry.
UniProt Q86UV5: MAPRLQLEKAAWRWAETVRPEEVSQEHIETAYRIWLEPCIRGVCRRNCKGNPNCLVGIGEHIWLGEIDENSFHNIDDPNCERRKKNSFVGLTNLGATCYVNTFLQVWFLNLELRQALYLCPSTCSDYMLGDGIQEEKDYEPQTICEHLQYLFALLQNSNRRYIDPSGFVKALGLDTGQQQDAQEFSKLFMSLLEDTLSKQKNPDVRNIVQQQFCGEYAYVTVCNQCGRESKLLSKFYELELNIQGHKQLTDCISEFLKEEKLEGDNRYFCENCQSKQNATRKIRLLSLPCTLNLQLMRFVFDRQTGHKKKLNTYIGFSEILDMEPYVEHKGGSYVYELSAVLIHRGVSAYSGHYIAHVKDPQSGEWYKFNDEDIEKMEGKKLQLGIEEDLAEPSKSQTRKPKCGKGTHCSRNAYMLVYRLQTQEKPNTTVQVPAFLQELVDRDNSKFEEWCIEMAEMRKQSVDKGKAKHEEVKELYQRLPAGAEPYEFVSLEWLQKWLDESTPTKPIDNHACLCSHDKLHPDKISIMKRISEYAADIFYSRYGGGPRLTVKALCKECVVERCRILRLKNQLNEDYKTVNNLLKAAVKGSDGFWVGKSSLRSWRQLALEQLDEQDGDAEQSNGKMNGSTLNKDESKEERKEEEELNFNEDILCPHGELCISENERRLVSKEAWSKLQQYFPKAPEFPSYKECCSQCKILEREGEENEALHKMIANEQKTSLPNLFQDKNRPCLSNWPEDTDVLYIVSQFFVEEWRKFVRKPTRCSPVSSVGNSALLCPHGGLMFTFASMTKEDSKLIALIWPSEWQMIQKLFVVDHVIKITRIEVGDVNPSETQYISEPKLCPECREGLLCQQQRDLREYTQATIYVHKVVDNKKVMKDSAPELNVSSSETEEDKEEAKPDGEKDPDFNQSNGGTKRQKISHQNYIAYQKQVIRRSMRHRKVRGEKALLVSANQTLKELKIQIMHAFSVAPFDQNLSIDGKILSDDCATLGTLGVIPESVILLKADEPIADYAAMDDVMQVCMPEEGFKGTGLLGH
UniProt Q6ZS30: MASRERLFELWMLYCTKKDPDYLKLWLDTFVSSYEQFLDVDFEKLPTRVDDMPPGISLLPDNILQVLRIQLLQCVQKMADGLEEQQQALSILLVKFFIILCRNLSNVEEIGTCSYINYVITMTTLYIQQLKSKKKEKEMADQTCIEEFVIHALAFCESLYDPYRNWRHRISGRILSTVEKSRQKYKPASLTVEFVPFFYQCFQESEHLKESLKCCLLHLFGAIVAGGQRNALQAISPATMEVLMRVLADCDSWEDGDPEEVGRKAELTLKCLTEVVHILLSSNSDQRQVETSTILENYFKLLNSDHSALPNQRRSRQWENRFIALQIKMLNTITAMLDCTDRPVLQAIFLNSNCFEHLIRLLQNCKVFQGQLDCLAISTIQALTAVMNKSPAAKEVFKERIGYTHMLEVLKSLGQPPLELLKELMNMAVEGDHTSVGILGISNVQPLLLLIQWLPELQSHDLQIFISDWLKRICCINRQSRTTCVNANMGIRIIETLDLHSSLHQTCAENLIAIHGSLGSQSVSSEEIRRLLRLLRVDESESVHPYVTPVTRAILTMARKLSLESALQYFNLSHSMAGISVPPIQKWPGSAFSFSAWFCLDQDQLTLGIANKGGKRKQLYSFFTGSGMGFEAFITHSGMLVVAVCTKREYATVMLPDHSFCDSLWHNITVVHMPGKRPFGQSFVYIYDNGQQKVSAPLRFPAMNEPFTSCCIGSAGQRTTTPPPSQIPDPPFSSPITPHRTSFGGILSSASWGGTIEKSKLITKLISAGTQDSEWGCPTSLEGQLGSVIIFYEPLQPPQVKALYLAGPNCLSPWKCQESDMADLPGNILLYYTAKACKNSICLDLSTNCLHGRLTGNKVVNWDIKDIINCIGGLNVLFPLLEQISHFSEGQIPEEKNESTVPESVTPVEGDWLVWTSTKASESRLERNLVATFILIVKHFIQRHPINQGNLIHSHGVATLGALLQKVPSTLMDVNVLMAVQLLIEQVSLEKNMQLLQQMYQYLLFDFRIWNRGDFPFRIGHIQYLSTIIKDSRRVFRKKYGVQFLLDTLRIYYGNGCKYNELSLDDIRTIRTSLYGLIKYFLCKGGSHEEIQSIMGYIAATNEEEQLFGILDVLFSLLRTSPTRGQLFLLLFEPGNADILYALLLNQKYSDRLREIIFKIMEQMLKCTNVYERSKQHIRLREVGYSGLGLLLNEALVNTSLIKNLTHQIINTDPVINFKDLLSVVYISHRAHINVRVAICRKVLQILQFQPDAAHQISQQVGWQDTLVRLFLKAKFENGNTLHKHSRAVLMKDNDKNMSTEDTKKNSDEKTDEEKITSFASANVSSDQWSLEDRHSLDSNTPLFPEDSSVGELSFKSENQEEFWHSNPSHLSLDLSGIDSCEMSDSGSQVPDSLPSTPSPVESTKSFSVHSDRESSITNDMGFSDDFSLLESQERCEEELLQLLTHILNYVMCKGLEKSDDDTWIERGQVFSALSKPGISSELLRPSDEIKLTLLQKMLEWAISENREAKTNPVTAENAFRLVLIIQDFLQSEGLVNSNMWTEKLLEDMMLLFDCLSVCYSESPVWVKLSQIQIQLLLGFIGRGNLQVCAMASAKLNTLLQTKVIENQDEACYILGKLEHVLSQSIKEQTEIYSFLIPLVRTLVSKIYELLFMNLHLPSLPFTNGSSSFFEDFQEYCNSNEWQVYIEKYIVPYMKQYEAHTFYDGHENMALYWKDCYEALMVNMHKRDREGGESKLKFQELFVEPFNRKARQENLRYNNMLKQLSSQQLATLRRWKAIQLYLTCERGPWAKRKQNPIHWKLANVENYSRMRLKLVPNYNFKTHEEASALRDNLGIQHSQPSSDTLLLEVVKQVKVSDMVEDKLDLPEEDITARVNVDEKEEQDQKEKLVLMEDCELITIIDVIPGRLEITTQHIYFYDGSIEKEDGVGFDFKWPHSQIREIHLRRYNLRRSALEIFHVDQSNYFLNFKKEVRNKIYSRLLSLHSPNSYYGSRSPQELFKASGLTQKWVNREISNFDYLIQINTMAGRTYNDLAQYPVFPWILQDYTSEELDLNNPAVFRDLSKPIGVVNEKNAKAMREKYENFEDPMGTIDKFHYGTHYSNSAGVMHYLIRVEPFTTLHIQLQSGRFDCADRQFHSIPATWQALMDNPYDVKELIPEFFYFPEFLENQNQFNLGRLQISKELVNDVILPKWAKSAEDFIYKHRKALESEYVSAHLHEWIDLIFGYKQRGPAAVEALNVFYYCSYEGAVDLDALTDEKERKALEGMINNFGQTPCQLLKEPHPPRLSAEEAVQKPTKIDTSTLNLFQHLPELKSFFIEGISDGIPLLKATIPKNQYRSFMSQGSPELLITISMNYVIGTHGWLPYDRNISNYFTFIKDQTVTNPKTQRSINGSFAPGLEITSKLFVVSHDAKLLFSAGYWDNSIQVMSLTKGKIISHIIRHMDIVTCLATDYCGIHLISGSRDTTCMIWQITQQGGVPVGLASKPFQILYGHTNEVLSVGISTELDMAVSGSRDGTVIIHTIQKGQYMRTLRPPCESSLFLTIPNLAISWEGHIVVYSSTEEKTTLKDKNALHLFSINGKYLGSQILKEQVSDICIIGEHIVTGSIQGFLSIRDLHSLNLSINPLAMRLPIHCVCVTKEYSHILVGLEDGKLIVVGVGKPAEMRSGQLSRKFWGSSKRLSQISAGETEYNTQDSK
UniProt Q86UU0: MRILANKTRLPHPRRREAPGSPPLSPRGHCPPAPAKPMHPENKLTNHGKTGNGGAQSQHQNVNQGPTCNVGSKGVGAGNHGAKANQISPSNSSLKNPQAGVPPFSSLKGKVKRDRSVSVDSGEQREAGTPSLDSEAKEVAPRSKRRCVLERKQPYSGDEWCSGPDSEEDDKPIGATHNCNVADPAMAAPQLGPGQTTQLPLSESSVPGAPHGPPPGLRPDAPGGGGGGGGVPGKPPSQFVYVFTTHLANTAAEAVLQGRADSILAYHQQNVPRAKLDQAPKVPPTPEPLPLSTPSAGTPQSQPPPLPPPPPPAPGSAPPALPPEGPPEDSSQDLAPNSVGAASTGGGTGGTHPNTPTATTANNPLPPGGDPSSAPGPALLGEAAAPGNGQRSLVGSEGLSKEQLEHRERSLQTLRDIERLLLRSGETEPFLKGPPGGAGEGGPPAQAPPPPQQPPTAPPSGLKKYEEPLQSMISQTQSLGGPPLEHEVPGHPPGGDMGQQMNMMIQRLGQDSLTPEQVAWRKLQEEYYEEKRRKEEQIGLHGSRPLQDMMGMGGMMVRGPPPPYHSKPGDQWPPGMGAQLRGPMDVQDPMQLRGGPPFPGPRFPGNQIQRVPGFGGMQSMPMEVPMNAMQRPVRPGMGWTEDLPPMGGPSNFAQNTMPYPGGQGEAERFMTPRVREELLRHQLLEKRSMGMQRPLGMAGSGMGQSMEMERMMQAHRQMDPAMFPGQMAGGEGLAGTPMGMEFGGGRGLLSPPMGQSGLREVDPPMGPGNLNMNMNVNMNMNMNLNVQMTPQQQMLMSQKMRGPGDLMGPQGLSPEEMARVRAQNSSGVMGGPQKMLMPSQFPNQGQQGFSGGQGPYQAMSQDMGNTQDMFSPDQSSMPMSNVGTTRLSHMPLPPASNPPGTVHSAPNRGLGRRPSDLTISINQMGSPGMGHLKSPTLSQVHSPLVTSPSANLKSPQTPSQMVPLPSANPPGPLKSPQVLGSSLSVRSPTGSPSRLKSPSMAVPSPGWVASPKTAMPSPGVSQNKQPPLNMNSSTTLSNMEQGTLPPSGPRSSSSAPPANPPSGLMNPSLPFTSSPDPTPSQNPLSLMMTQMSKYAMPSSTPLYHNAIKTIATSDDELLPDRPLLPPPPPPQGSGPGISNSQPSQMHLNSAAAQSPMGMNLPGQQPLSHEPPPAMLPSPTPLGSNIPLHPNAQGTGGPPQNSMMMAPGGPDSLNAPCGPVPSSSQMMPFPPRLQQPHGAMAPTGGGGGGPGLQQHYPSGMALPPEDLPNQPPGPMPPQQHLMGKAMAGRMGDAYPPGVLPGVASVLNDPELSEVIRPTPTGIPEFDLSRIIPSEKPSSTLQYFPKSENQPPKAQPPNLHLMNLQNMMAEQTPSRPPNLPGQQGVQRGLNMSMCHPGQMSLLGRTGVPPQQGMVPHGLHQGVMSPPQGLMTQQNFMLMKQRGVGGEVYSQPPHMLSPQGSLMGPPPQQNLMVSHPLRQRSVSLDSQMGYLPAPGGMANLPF
UniProt Q6UUV9: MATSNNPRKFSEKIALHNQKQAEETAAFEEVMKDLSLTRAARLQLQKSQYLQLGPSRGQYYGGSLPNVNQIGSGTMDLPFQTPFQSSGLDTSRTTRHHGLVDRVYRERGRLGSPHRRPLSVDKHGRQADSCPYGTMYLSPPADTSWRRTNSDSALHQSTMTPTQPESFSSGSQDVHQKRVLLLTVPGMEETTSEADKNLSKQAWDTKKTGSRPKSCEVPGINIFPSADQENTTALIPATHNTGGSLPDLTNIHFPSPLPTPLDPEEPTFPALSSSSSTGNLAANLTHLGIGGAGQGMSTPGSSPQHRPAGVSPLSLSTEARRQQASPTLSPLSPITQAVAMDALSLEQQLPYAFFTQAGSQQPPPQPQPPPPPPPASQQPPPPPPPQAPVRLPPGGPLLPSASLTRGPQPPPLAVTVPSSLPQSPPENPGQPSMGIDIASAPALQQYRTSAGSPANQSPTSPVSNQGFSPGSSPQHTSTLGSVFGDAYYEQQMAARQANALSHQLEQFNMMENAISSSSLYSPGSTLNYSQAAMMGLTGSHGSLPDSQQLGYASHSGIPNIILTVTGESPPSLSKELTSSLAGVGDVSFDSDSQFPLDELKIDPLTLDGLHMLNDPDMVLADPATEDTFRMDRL
UniProt Q6UVJ0: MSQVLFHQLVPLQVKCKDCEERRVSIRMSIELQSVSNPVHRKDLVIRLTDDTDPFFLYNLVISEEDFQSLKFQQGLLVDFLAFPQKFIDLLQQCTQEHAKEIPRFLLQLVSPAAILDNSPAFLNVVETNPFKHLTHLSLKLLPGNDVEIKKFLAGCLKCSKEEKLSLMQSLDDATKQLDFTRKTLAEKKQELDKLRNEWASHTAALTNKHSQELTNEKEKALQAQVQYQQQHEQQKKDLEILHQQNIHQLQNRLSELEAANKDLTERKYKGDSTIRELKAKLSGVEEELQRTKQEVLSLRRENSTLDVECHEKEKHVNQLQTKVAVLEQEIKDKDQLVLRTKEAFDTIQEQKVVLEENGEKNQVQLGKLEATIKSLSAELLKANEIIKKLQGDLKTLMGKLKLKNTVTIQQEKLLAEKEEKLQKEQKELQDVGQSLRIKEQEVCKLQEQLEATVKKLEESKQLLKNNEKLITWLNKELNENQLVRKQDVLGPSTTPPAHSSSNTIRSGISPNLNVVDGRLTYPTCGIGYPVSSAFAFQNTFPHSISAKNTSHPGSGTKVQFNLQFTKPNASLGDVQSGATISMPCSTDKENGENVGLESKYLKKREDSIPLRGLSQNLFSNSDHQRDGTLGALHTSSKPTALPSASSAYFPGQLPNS

Compound: CCc1cnccc1C(=O)Nc1cc2c(cc1F)NC(=O)CC2
Experiment: melting temperature shift (DMSO Tm minus MBE1-treated Tm) in cellular thermal proteome profiling; higher = less thermal stabilization by MBE1 (negative = stabilized by MBE1)
Settings: A375

Target | melting temperature shift (MBE1 concentration: 100 nM) | melting temperature shift (MBE1 concentration: 1 uM)
DCXR (UniProt Q7Z4W1) | -0.171 °C | 0.666 °C
UniProt Q7Z2Z1 | -0.952 °C | 0.181 °C
FASTKD5 (UniProt Q7L8L6) | -0.333 °C | -0.0577 °C
UniProt Q6XUX3 | 0.989 °C | 0.14 °C
NCEH1 (UniProt Q6PIU2) | -0.856 °C | -0.98 °C
USP34 (UniProt Q70CQ2) | -0.677 °C | -0.447 °C
USP48 (UniProt Q86UV5) | -0.442 °C | -0.365 °C
UniProt Q7L513 | -0.47 °C | 0.906 °C
IRF2BP2 (UniProt Q7Z5L9) | -2.03 °C | -0.961 °C
DHDDS (UniProt Q86SQ9) | -2.21 °C | -0.0939 °C
NFXL1 (UniProt Q6ZNB6) | -0.427 °C | -0.934 °C
ZC3H18 (UniProt Q86VM9) | -2.55 °C | 0.227 °C
ENOSF1 (UniProt Q7L5Y1) | -2.27 °C | 1.82 °C
UniProt Q6PCB8 | -2.53 °C | -2.53 °C
NBEAL1 (UniProt Q6ZS30) | -0.0305 °C | 0.531 °C
BCL9L (UniProt Q86UU0) | -0.893 °C | -0.228 °C
EIF3M (UniProt Q7L2H7) | 0 °C | -0.461 °C
CRTC1 (UniProt Q6UUV9) | -0.577 °C | 1.37 °C
UniProt Q7Z7M9 | -0.307 °C | 0.488 °C
GPAT4 (UniProt Q86UL3) | -0.811 °C | -0.122 °C
SASS6 (UniProt Q6UVJ0) | -0.869 °C | 0.295 °C
WDR74 (UniProt Q6RFH5) | -0.93 °C | -0.119 °C
TLDC1 (UniProt Q6P9B6) | -0.055 °C | 0.36 °C
UBE2Q1 (UniProt Q7Z7E8) | 0.293 °C | -0.415 °C
UniProt Q6ZV73 | 1.22 °C | 1.82 °C
